Experimental data published in the supplement of paper PMC8728848.
The list shows a part of the results.

How the values were obtained:
Experiment in all cases: glycan array binding signal (z-score within array); higher = stronger binding
Settings in all cases: glycan notation: IUPAC condensed, linker removed
[1] = target: Neu5Ac(a2-3)Gal(b1-4)GlcNAc(b1-6)GalNAc
Procedure, shortened: (§1)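 Glycan array binding is given as a within-array Z-score, which can be read as non-binding when negative. The arrays, 3228 of them, came from the Consortium for Functional Glycomics database and were retained only where the protein sequence was available. Z-scores were averaged across arrays of the same protein sequence at different concentrations or buffers and across linkers.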

[2] = target: Neu5Ac(a2-3)Gal(b1-4)GlcNAc(b1-6)[Gal(b1-3)]GalNAc
Procedure, shortened: as §1

[3] = target: Neu5Ac(a2-3)Gal(b1-4)GlcNAc(b1-6)[Neu5Ac(a2-3)Gal(b1-3)]GalNAc
Procedure, shortened: as §1

[4] = target: Neu5Ac(a2-3)Gal(b1-4)GlcNAc6S
Procedure, shortened: as §1

[5] = target: Neu5Ac(a2-3)Gal(b1-4)[Fuc(a1-3)]GlcNAc
Procedure, shortened: as §1

[6] = target: Neu5Ac(a2-3)Gal(b1-4)[Fuc(a1-3)]GlcNAc(b1-2)Man
Procedure, shortened: as §1

[7] = target: Neu5Ac(a2-3)Gal(b1-4)[Fuc(a1-3)]GlcNAc(b1-3)Gal
Procedure, shortened: as §1

[8] = target: Neu5Ac(a2-3)Gal(b1-4)[Fuc(a1-3)]GlcNAc(b1-3)Gal(b1-4)GlcNAc
Procedure, shortened: as §1

[9] = target: Neu5Ac(a2-3)Gal(b1-4)[Fuc(a1-3)]GlcNAc(b1-3)Gal(b1-4)[Fuc(a1-3)]GlcNAc(b1-3)Gal(b1-4)[Fuc(a1-3)]GlcNAc
Procedure, shortened: as §1

[10] = target: Neu5Ac(a2-3)Gal(b1-4)[Fuc(a1-3)]GlcNAc(b1-3)GalNAc
Procedure, shortened: as §1

[11] = target: Neu5Ac(a2-3)Gal(b1-4)[Fuc(a1-3)]GlcNAc(b1-6)[Gal(b1-3)]GalNAc
Procedure, shortened: as §1

[12] = target: Neu5Ac(a2-3)Gal(b1-4)[Fuc(a1-3)]GlcNAc(b1-6)[Neu5Ac(a2-3)Gal(b1-3)]GalNAc
Procedure, shortened: as §1

[13] = target: Neu5Ac(a2-3)Gal(b1-4)[Fuc(a1-3)]GlcNAc6S
Procedure, shortened: as §1

[14] = target: Neu5Ac(a2-3)Gal6S(b1-4)GlcNAc
Procedure, shortened: as §1

[15] = target: Neu5Ac(a2-3)Gal6S(b1-4)[Fuc(a1-3)]GlcNAc
Procedure, shortened: as §1

Neu5Ac(a2-3)GalNAc = target: Neu5Ac(a2-3)GalNAc
Procedure, shortened: as §1

[16] = target: Neu5Ac(a2-3)GalNAc(b1-4)GlcNAc
Procedure, shortened: as §1

[17] = target: Neu5Ac(a2-3)[GalNAc(b1-4)]Gal(b1-4)Glc
Procedure, shortened: as §1

[18] = target: Neu5Ac(a2-3)[GalNAc(b1-4)]Gal(b1-4)GlcNAc
Procedure, shortened: as §1

[19] = target: Neu5Ac(a2-3)[GalNAc(b1-4)]Gal(b1-4)GlcNAc(b1-3)GalNAc
Procedure, shortened: as §1

[20] = target: Neu5Ac(a2-3)[Neu5Ac(a2-6)]GalNAc
Procedure, shortened: as §1

Neu5Ac(a2-6)Gal = target: Neu5Ac(a2-6)Gal
Procedure, shortened: as §1

[21] = target: Neu5Ac(a2-6)Gal(b1-3)GlcNAc(b1-3)[Gal(b1-4)GlcNAc(b1-6)]Gal(b1-4)Glc
Procedure, shortened: as §1

Neu5Ac(a2-6)Gal(b1-4)Glc = target: Neu5Ac(a2-6)Gal(b1-4)Glc
Procedure, shortened: as §1

[22] = target: Neu5Ac(a2-6)Gal(b1-4)GlcNAc
Procedure, shortened: as §1

[23] = target: Neu5Ac(a2-6)Gal(b1-4)GlcNAc(b1-2)Man
Procedure, shortened: as §1

[24] = target: Neu5Ac(a2-6)Gal(b1-4)GlcNAc(b1-2)Man(a1-3)Man(b1-4)GlcNAc(b1-4)GlcNAc
Procedure, shortened: as §1

[25] = target: Neu5Ac(a2-6)Gal(b1-4)GlcNAc(b1-2)Man(a1-3)[Gal(b1-4)GlcNAc(b1-2)Man(a1-6)]Man(b1-4)GlcNAc(b1-4)GlcNAc
Procedure, shortened: as §1

[26] = target: Neu5Ac(a2-6)Gal(b1-4)GlcNAc(b1-2)Man(a1-3)[GlcNAc(b1-2)Man(a1-6)]Man(b1-4)GlcNAc(b1-4)GlcNAc
Procedure, shortened: as §1

[27] = target: Neu5Ac(a2-6)Gal(b1-4)GlcNAc(b1-2)Man(a1-3)[GlcNAc(b1-4)][Neu5Ac(a2-6)Gal(b1-4)GlcNAc(b1-2)Man(a1-6)]Man(b1-4)GlcNAc(b1-4)GlcNAc
Procedure, shortened: as §1

[28] = target: Neu5Ac(a2-6)Gal(b1-4)GlcNAc(b1-2)Man(a1-3)[Man(a1-6)]Man(b1-4)GlcNAc(b1-4)GlcNAc
Procedure, shortened: as §1

[29] = target: Neu5Ac(a2-6)Gal(b1-4)GlcNAc(b1-2)Man(a1-3)[Neu5Ac(a2-3)Gal(b1-4)GlcNAc(b1-2)Man(a1-6)]Man(b1-4)GlcNAc(b1-4)GlcNAc
Procedure, shortened: as §1

[30] = target: Neu5Ac(a2-6)Gal(b1-4)GlcNAc(b1-2)Man(a1-3)[Neu5Ac(a2-6)Gal(b1-4)GlcNAc(b1-2)Man(a1-6)]Man(b1-4)GlcNAc(b1-4)GlcNAc
Procedure, shortened: as §1

[31] = target: Neu5Ac(a2-6)Gal(b1-4)GlcNAc(b1-2)Man(a1-3)[Neu5Ac(a2-6)Gal(b1-4)GlcNAc(b1-2)Man(a1-6)]Man(b1-4)GlcNAc(b1-4)[Fuc(a1-6)]GlcNAc
Procedure, shortened: as §1

[32] = target: Neu5Ac(a2-6)Gal(b1-4)GlcNAc(b1-2)Man(a1-6)Man(b1-4)GlcNAc(b1-4)GlcNAc
Procedure, shortened: as §1

[33] = target: Neu5Ac(a2-6)Gal(b1-4)GlcNAc(b1-2)Man(a1-6)[Gal(b1-4)GlcNAc(b1-2)Man(a1-3)]Man(b1-4)GlcNAc(b1-4)GlcNAc
Procedure, shortened: as §1

[34] = target: Neu5Ac(a2-6)Gal(b1-4)GlcNAc(b1-2)Man(a1-6)[GlcNAc(b1-2)Man(a1-3)]Man(b1-4)GlcNAc(b1-4)GlcNAc
Procedure, shortened: as §1

[35] = target: Neu5Ac(a2-6)Gal(b1-4)GlcNAc(b1-2)Man(a1-6)[Man(a1-3)]Man(b1-4)GlcNAc(b1-4)GlcNAc
Procedure, shortened: as §1

[36] = target: Neu5Ac(a2-6)Gal(b1-4)GlcNAc(b1-2)[Neu5Ac(a2-6)Gal(b1-4)GlcNAc(b1-4)]Man(a1-3)[GlcNAc(b1-4)][Neu5Ac(a2-6)Gal(b1-4)GlcNAc(b1-2)[Neu5Ac(a2-6)Gal(b1-4)GlcNAc(b1-6)]Man(a1-6)]Man(b1-4)GlcNAc(b1-4)GlcNAc
Procedure, shortened: as §1

[37] = target: Neu5Ac(a2-6)Gal(b1-4)GlcNAc(b1-2)[Neu5Ac(a2-6)Gal(b1-4)GlcNAc(b1-4)]Man(a1-3)[GlcNAc(b1-4)][Neu5Ac(a2-6)Gal(b1-4)GlcNAc(b1-4)Man(a1-6)]Man(b1-4)GlcNAc(b1-4)GlcNAc
Procedure, shortened: as §1

[38] = target: Neu5Ac(a2-6)Gal(b1-4)GlcNAc(b1-2)[Neu5Ac(a2-6)Gal(b1-4)GlcNAc(b1-6)]Man(a1-6)[Neu5Ac(a2-6)Gal(b1-4)GlcNAc(b1-2)Man(a1-3)][GlcNAc(b1-4)]Man(b1-4)GlcNAc(b1-4)GlcNAc
Procedure, shortened: as §1

[39] = target: Neu5Ac(a2-6)Gal(b1-4)GlcNAc(b1-3)Gal(b1-3)GlcNAc
Procedure, shortened: as §1

[40] = target: Neu5Ac(a2-6)Gal(b1-4)GlcNAc(b1-3)Gal(b1-4)GlcNAc
Procedure, shortened: as §1

[41] = target: Neu5Ac(a2-6)Gal(b1-4)GlcNAc(b1-3)Gal(b1-4)GlcNAc(b1-2)Man(a1-3)[Neu5Ac(a2-6)Gal(b1-4)GlcNAc(b1-3)Gal(b1-4)GlcNAc(b1-2)Man(a1-6)]GalNAc
Procedure, shortened: as §1

[42] = target: Neu5Ac(a2-6)Gal(b1-4)GlcNAc(b1-3)Gal(b1-4)GlcNAc(b1-3)Gal(b1-4)GlcNAc
Procedure, shortened: as §1

B1: Loc1 (Escherichia coli) (protein)
chain: APCALTNVGEQRGTYILKPLSMKGNLTAEKIENTGNIIECTDLQETTNAIKVHFLTQNALKFKVGSRHYIINFPFEYDGKKIELPGKSSYNLEEMLSAINFTIPYSIASVSDSSNTADIFPGTPFPLLFEIEVSSCTGNNTNCNSVRFNYNLNTILQVNLMTHHHHHH
Question: What does the source list for B1?
Answer: glycan array binding signal (z-score) [1]: -0.819; glycan array binding signal (z-score) [2]: 0.621; glycan array binding signal (z-score) [3]: -1.46; glycan array binding signal (z-score) [4]: 0.385; glycan array binding signal (z-score) [5]: -0.223; glycan array binding signal (z-score) [6]: -0.628; glycan array binding signal (z-score) [7]: 0.573; glycan array binding signal (z-score) [8]: 0.802; glycan array binding signal (z-score) [9]: 0.477; glycan array binding signal (z-score) [10]: 0.87; glycan array binding signal (z-score) [11]: 0.505; glycan array binding signal (z-score) [12]: -0.445; glycan array binding signal (z-score) [13]: 0.57; glycan array binding signal (z-score) [14]: 0.135; glycan array binding signal (z-score) [15]: -0.948; glycan array binding signal (z-score) (Neu5Ac(a2-3)GalNAc): -0.556; glycan array binding signal (z-score) [16]: -0.495; glycan array binding signal (z-score) [17]: -1.33; glycan array binding signal (z-score) [18]: 0.303; glycan array binding signal (z-score) [19]: 1.06; glycan array binding signal (z-score) [20]: 1.35; glycan array binding signal (z-score) (Neu5Ac(a2-6)Gal): 0.088; glycan array binding signal (z-score) [21]: -1.2; glycan array binding signal (z-score) (Neu5Ac(a2-6)Gal(b1-4)Glc): -0.014; glycan array binding signal (z-score) [22]: 0.239; glycan array binding signal (z-score) [23]: -1.24; glycan array binding signal (z-score) [24]: 1.52; glycan array binding signal (z-score) [25]: -0.138; glycan array binding signal (z-score) [26]: -0.15; glycan array binding signal (z-score) [27]: -0.814; glycan array binding signal (z-score) [28]: -0.169; glycan array binding signal (z-score) [29]: 0.21; glycan array binding signal (z-score) [30]: -0.515; glycan array binding signal (z-score) [31]: -0.229; glycan array binding signal (z-score) [32]: 0.078; glycan array binding signal (z-score) [33]: 1.7; glycan array binding signal (z-score) [34]: 1.58; glycan array binding signal (z-score) [35]: -0.441; glycan array binding signal (z-score) [36]: -0.632; glycan array binding signal (z-score) [37]: -1.61; glycan array binding signal (z-score) [38]: -0.217; glycan array binding signal (z-score) [39]: 0.195; glycan array binding signal (z-score) [40]: -0.082; glycan array binding signal (z-score) [41]: -0.36; glycan array binding signal (z-score) [42]: -0.927
